Laboratory results: PubChem BioAssay AID445 (National Center for Advancing Translational Sciences (NCATS), 2006)
Some of the results follow. Shown are side measurements of this screen, not its main read-out; they come without a call. Compounds called inactive in the main read-out are mostly missing here. Words in brackets tell the shape of the fitted curve; partial curves, single points and poor fits give uncertain potencies.

Assay: IkB Signaling
Conditions: ABC-DLBCL IkBa-CBG/CBR dual luciferase ratio (green luciferase fused to IkBa over red control in OCI-Ly3 lymphoma cells), 4 h; measured here: control luc red channel unless noted
Summary of the method: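 In this assay, an IκBα–CBG68 fusion accumulates when IKK-driven degradation is blocked; native CBR normalizes for cell number. OCI-Ly3 cells were treated 4 h with compound and doxycycline, then green and red light read after Chroma-Glo addition.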
In the case of `COC(=O)c1c(NC(=O)c2ccc(S(=O)(=O)N3CCCCC3C)cc2)sc2c1CCN(C(C)C)C2` (centres undefined), the AC50 is reported as 20 µM [falling, partial curve]. In the case of `COc1ccc(-c2noc(CSc3nnc(-c4ccncc4)n3-c3ccccc3)n2)cc1`, the AC50 is reported as 25.1 µM [falling, partial curve]. In the case of `Cc1ccccc1-c1noc(CSc2nnc(Cc3ccccc3)n2-c2ccc(F)cc2)n1`, the AC50 is reported as 31.6 µM [falling, partial curve]. In the case of `Nc1c(-c2ccc(Cl)cc2)nnn1-c1ccccc1`, the AC50 is reported as 10 µM [falling, partial curve]. For `CCC(C)n1c(=N)c(S(=O)(=O)c2ccc(C)cc2)cc2c(=O)n3cc(C)ccc3nc21` (centres undefined), the AC50 was 0.251 µM [rising, full curve]. In the case of `O=S(=O)(Cc1ccccc1)N1CCC(c2nc(-c3cccs3)no2)CC1`, the AC50 is reported as 25.1 µM [falling, partial curve]. With `CC1=CC(=C2C(=O)c3ccccc3C2=O)C=C(C)N1Cc1ccco1` the AC50 was 15.8 µM [falling, partial curve]. With `Cc1ccc(-n2ncc3c(NNC(=O)c4ccccc4C)ncnc32)cc1` the AC50 was 6.31 µM [falling, partial curve]. For `CC(C)c1ccc(C2c3c(-c4ccccc4O)n[nH]c3C(=O)N2CCc2ccccc2)cc1` (centres undefined), the AC50 was 20 µM [falling, partial curve]. With `CC1=C(C(=O)Nc2ccccc2)C(c2ccc(C(=O)O)cc2)n2nc(SCC(=O)c3ccc(C)cc3)nc2N1` (centres undefined) the AC50 was 7.94 µM [rising, single point]. With `CCN(CC)CCn1c(=N)n(CC(O)COc2ccccc2C)c2ccccc21` (centres undefined) the AC50 was 25.1 µM [falling, single point]. In the case of `Cc1ccc(Cn2c(=O)c3c(nc4n3CCN4c3cc(C)cc(C)c3)n(C)c2=O)cc1`, the AC50 is reported as 12.6 µM [falling, partial curve]. With `COc1ccc(-c2nc(CCNC(=O)c3cc(OC)c(OC)c(OC)c3)cs2)cc1` the AC50 was 10 µM [falling, partial curve, poor fit]. For `COc1ccc(CNC(=O)Cc2c(C)c3c(cc(C)c4c(C)coc43)oc2=O)cc1`, the AC50 was 25.1 µM [falling, single point]. In the case of `Cc1ccc(-c2nnc(Nc3ccc(Cl)cc3)c3ccccc23)cc1S(=O)(=O)NCC1CCCO1` (centres undefined), the AC50 is reported as 5.01 µM [falling, full curve]. With `O=C(c1cccc(Cl)c1)N1CCC(c2nc3c(nnn3Cc3ccc(F)cc3F)c(=O)[nH]2)CC1` the AC50 was 39.8 µM [falling, single point]. With `COc1ccc(C(=O)c2cn(Cc3ccccc3F)c3ccc(F)cc3c2=O)cc1` the AC50 was 31.6 µM [falling, single point]. With `COc1ccc(-c2[nH]c(-c3ccc(OC)c(OC)c3)nc2SCC(=O)Nc2ccccc2)cc1` the AC50 was 7.94 µM [falling, partial curve]. For `Cc1ccc(Nc2c(-c3ccc(N(C)C)cc3)nc3ccccn23)cc1`, the AC50 was 39.8 µM [falling, single point]. With `C=C(C)COc1ccc(-c2[nH]ncc2Oc2ccccc2OC)c(O)c1` the AC50 was 39.8 µM [falling, single point]. For `CCOc1ccccc1C(=O)N(Cc1ccc(N(C)C)cc1)Cc1ccco1`, the AC50 was 25.1 µM [falling, single point]. For `CCCCOc1cccc(C(=O)N(Cc2ccc(Cl)cc2)C2CCS(=O)(=O)C2)c1` (centres undefined), the AC50 was 39.8 µM [falling, single point]. In the case of `COc1ccc(CCNC(=O)CSc2nnc(-c3ccc(C)cc3)c(-c3ccc(C)cc3)n2)cc1OC`, the AC50 is reported as 39.8 µM [falling, single point]. For `COc1cc2c(cc1NC(=O)CN1C(=O)NC3(CCc4ccccc43)C1=O)oc1ccccc12` (centres undefined), the AC50 was 15.8 µM [falling, partial curve]. With `COc1ccc(N(CC(=O)N2c3ccccc3CC2C)S(=O)(=O)c2c(C)noc2C)cc1` (centres undefined) the AC50 was 3.16 µM [falling, partial curve]. For `CC(=O)c1ccc(N2CCN(C(=O)CS(=O)(=O)c3cccc4nsnc34)CC2)cc1`, the AC50 was 1 µM [rising, full curve, poor fit]. For `COc1ccccc1NC(=O)N1CC=C(c2c[nH]c3ccccc23)CC1`, the AC50 was 25.1 µM [falling, partial curve]. For `CCOc1ccc(C(=O)NCCS(=O)(=O)N2CCN(c3cccc(Cl)c3)CC2)cc1`, the AC50 was 1.58 µM [rising, full curve]. With `O=c1c2c(nc3c(-c4cccc5ccccc45)c[nH]n13)CCC2` the AC50 was 1.58 µM [falling, full curve, poor fit]. For `Cc1cc(=O)[nH]c2nnc(SCCC(C)C)n12`, the AC50 was 3.16 µM [rising, single point]. In the case of `CC1CN(C(=O)CCC(=O)NCc2cccs2)c2ccccc2O1` (centres undefined), the AC50 is reported as 25.1 µM [falling, single point]. With `CCOC(=O)Cc1csc(NC(=O)CCS(=O)(=O)Cc2ccccc2)n1` the AC50 was 7.94 µM [falling, partial curve] [measured here: IkB-luc green channel]. With `COc1cc(NC(=O)C2=C(C)Nc3nnnn3C2c2ccc(SC)cc2)c(OC)cc1Cl` (centres undefined) the AC50 was 31.6 µM [falling, single point]. For `COc1cc(C(=O)Oc2ccccc2N)cc(OC)c1OC`, the AC50 was 2 µM [falling, full curve]. In the case of `Cc1nn(CCCC(=O)NCc2ccccc2)c(=O)c2c1sc1ccccc12`, the AC50 is reported as 10 µM [falling, partial curve]. With `Cc1ccc(Oc2ccc(-c3nc(N)nc(N)n3)cc2)cc1` the AC50 was 31.6 µM [falling, single point]. For `CCN(C(=O)Cn1nc2c3cc(F)ccc3n(Cc3cccc(C)c3)cc-2c1=O)c1cccc(C)c1`, the AC50 was 31.6 µM [falling, single point]. With `CCN(CC)CCOC(=O)c1ccc(NC(=O)c2nn(-c3ccc(C)cc3)c(=O)c3c2c2ccccc2n3C)cc1` the AC50 was 5.01 µM [falling, full curve]. For `COc1cc(OC)c(NC(=O)N2CCOc3ccc(C)cc32)cc1Cl`, the AC50 was 6.31 µM [rising, partial curve].
